Test results taken from the supplement of paper PMC12823440, “Inhibitors supercharge kinase turnover through native proteolytic circuits” (Nature, 2025).
Counter-ions that a name gives are not always drawn. The list shows a part of the results. The calls rarely recur for the same compound in another form.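 Kinases, fused to nanoluciferase, were expressed in K562 cells; luminescence was measured every 4 h from 2 to 18 h as percent of control (DMSO = 100%, positive control = 0%). A time point is decreased if signal falls significantly (2 sigma). Hits were called by the authors by a rule that is not shown; the count of time points alone does not decide it.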

Chains of the proteins cited; added tags and fusions are not shown. Lines headed by an entry give the natural chain unless they say otherwise; changes in a name come on top.
UniProt P41240: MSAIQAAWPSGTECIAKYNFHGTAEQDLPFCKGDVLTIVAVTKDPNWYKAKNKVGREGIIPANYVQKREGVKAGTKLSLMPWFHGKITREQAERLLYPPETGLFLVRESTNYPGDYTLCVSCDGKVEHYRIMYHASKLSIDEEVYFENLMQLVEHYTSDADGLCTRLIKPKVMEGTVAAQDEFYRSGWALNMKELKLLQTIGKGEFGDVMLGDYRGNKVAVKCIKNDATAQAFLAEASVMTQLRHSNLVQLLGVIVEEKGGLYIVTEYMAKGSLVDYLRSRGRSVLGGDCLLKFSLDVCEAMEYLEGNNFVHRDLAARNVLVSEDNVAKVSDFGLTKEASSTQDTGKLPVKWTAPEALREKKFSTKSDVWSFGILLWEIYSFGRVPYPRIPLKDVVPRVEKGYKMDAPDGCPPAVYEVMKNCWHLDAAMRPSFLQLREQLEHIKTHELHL

target: CSK (UniProt P41240); test: kinase-Nluc reporter destabilization hit call (1 = scored as downregulated) (binary); higher = compound decreases kinase abundance; settings: 2.5 µM; K562; 2-18 h

kinase-Nluc reporter destabilization hit call, inactive:
C=CC(=O)N1CCC[C@@H](n2nc(-c3ccc(Oc4ccccc4)cc3)c3c(N)ncnc32)C1 [Ibrutinib] 0, Cc1cn(-c2cc(NC(=O)c3ccc(C)c(Nc4nccc(-c5cccnc5)n4)c3)cc(C(F)(F)F)c2)cn1 [Nilotinib] 0, Cc1cc(C)n2c1C=C1C=CC(CCC(=O)NCCN3CCN(C/C=C/C(=O)N4CCCC(n5nc(-c6ccc(Oc7ccccc7)cc6)c6c(N)ncnc65)C4)CC3)=[N+]1[B-]2(F)F (stereo not given) 0, Cc1cnc(Nc2ccc(OCCN3CCCC3)cc2)nc1Nc1cccc(S(=O)(=O)NC(C)(C)C)c1 [Fedratinib (hydrochloride hydrate)] 0, C=CC(=O)Nc1cc2c(Nc3ccc(F)c(Cl)c3)ncnc2cc1OCCCN1CCOCC1 [Canertinib (dihydrochloride)] 0, O=C(Nc1cccc(Nc2nccc(Nc3cccc(C(F)(F)F)c3)n2)c1)C1CC1 [Aurora kinase inhibitor-3] 0, COc1ccc(-c2cc3nccn3c(Nc3ncccc3C(N)=O)n2)cc1OC [BAY 61-3606 (dihydrochloride)] 0, Nc1nc(Nc2ccc(S(N)(=O)=O)cc2)nn1C(=O)c1c(F)cccc1F 0, COc1cc(N2CCC(N3CCN(C)CC3)CC2)ccc1Nc1ncc(Cl)c(Nc2ccccc2S(=O)(=O)C(C)C)n1 0, COc1cc(Nc2c(C#N)cnc3cc(OCCCN4CCN(C)CC4)c(OC)cc23)c(Cl)cc1Cl [Bosutinib] 0, CCc1cc2c(cc1-c1cnn(CC(=O)N(C)C)c1)C(C)(C)c1[nH]c3cc(C#N)ccc3c1C2=O 0, Cc1cnc(Nc2ccc(OCCN3CCCC3)cc2)nc1Nc1cccc(S(=O)(=O)NC(C)(C)C)c1 [Fedratinib] 0, Cc1cc(Nc2cc(N3CCN(C)CC3)nc(/C=C/c3ccccc3)n2)n[nH]1 [ENMD-2076 (Tartrate)] 0, Cc1cc(Nc2cc(N3CCN(C)CC3)nc(/C=C/c3ccccc3)n2)n[nH]1 0

same assay, conditions: 10 µM; K562; 2-18 h

kinase-Nluc reporter destabilization hit call, inactive:
C=CC(=O)N1CCC([C@@H]2CCNc3c(C(N)=O)c(-c4ccc(Oc5ccccc5)cc4)nn32)CC1 [Zanubrutinib] 0, CCn1c(=O)c(-c2cc(NC(=O)Nc3ccccc3)c(F)cc2Br)cc2cnc(NC)cc21 [Ripretinib] 0, COc1cc(N2CCN(C)CC2)ccc1Nc1nccc(-c2cn(C)c3cnccc23)n1 0, Fc1ccc(-c2nc(-c3ccc4ccccc4c3F)[nH]c2-c2ccncc2)cc1 0, C=CC(=O)N(C)CCOc1c(N)ncnc1-c1cc(F)cc(NC(=O)c2ccc(C3CC3)cc2F)c1C [Remibrutinib] 0, NCCNc1ncc(C(N)=O)c(Nc2cccc(C(F)(F)F)c2)n1 [Syk Inhibitor II] 0, C[C@@H]1O[C@@H](Oc2c(-c3ccc(O)c(O)c3)oc3cc(O)cc(O)c3c2=O)[C@H](O)[C@H](O)[C@H]1O [Quercitrin] 0, CCCOc1ccc(C=C2SC(=O)NC2=O)cc1 0, Cc1cc2c(F)c(Oc3ncnn4cc(OC[C@@H](C)O)c(C)c34)ccc2[nH]1 [Brivanib] 0, CC(C)[C@@](C)(O)[C@@H]1CN(c2nc(-c3[nH]nc4ncccc34)c(F)cc2Cl)CCN1 0, CCCCCCCCCCCCc1ccc(S(=O)(=O)Nc2nncs2)cc1 0, CC#CC(=O)N1CCC[C@H]1c1nc(-c2ccc(C(=O)Nc3ccccn3)cc2)c2c(N)nccn12 [Acalabrutinib] 0, CC(C)N(CCC(=O)c1ccc2ccccc2c1)Cc1ccccc1 0, C=CC(=O)N1C[C@@H](Nc2ncnc3[nH]ccc23)CC[C@H]1C [(2R,5S)-Ritlecitinib] 0, COc1ccc(-c2cc(C(=O)NN=C(C)c3ccc(OC)c(OC)c3)[nH]n2)cc1 0, Cn1cc(/C=C2\C(=O)Nc3cccnc32)c2ccccc21 0, Cc1ccc2c(=O)c3cccc(CC(=O)O)c3oc2c1C [Vadimezan] 0, C[C@@H]1CN(C(=O)Nc2ccc(-c3nc(N4CCOCC4)c4cnn(CCCCCCC(=O)NO)c4n3)cc2)CCO1 [HDACs/mTOR Inhibitor 1] 0, C[C@H]1CN(C2COC2)CCN1c1ccc(Nc2cc(-c3ccnc(N4CCn5c(cc6c5CC(C)(C)C6)C4=O)c3CO)cn(C)c2=O)nc1 [Fenebrutinib] 0, Nc1ncccc1-c1nc2ccc(-c3ccccc3)nc2n1-c1ccc(C2(N)CCC2)cc1 [Miransertib] 0, C=CC(=O)Nc1cc2c(Nc3ccc(F)c(Cl)c3)ncnc2cc1OCCCN1CCOCC1 [Canertinib] 0, O=c1ncn2nc(Sc3ccc(F)cc3F)ccc2c1-c1c(Cl)cccc1Cl [Neflamapimod] 0, CCCCCC1CC1CC1CC1CCCCCCCC(=O)OC (stereo not given) 0, CC(C)(C)n1nc(-c2ccc(Cl)cc2)c2c(N)ncnc21 0, NC1(C(=O)N[C@@H](CCO)c2ccc(Cl)cc2)CCN(c2nc[nH]c3nccc2-3)CC1 [Capivasertib] 0, Cc1ccc(O)cc1Nc1ccnc(Nc2cccc(C(N)=O)c2)n1 [Lck inhibitor 2] 0
